Experimental data reported in patent US20140031234A1 (published 2014).
These are yes or no findings as the source states them, for the method shown. For some assays here: Binding seen in cells or lysates may run through a third protein. Some entries that bind do so weakly or less than the wild type. For some assays here: Tags and fused reporters may be left off the sequences shown. Blank lines part the entries; values can stand above or below the molecule they belong to.

Assays:
[1] = target: Δ513 of NPR1 (C-terminal transactivation domain) fused to the HA-Tag (Arabidopsis thaliana) (UniProt P93002); experiment: pull-down, BTB/POZ-Strep on StrepTactin solid phase, HA-Δ513 detected by immunoblot
[2] = target: NPR1 BTB/POZ fused to the VP16 transactivation domain (Arabidopsis thaliana) (UniProt P93002); experiment: plant two-hybrid in Arabidopsis leaves, with and without SA
[3] = target: Δ513 of NPR1 fused to the VP16 transactivation domain (Arabidopsis thaliana) (UniProt P93002); experiment: plant two-hybrid in Arabidopsis leaves, reporter mRNA by qPCR, no SA
[4] = target: Δ513 of NPR1 fused to the VP16 transactivation domain (Arabidopsis thaliana) (UniProt P93002); experiment: plant two-hybrid in Arabidopsis leaves, no SA (figure legend)
[5] = target: T1, Strep-tagged NPR1 (full length) (Arabidopsis thaliana), P93002; experiment: Sephacryl S300 gel filtration with immunoblot of the fractions; self-association (void-volume oligomer without SA, dimer with 1 mM SA); details: remark: other sources report otherwise
T1 chain: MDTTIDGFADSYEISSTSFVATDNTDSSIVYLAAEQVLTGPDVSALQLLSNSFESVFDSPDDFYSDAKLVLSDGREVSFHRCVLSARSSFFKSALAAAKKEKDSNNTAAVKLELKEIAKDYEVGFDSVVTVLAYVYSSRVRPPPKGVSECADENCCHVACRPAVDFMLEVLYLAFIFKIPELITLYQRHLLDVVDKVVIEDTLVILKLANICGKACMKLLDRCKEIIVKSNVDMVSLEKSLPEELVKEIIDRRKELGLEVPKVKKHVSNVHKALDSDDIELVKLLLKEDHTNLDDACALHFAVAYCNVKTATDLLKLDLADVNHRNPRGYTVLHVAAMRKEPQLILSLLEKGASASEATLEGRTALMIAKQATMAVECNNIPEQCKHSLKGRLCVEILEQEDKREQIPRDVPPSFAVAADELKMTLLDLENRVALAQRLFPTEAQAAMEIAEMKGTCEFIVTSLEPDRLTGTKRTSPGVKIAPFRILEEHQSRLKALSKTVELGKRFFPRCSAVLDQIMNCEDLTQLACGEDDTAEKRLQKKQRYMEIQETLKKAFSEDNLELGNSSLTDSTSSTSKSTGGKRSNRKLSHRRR

binding [1]: binds
Molecule: BTB/POZ (amino acids 1-190 of NPR1) fused to the Strep-Tag (from UniProt P93002 1-190)

Molecule: NPR1 BTB/POZ fused to the Gal4 DNA-binding domain (from UniProt P04386 1-147; P93002 1-190)
binding [2]: binds | binding [3]: binds | binding [4]: binds

binding [5]: binds
B1: Strep-tagged NPR1 (full length), P93002 1-593 (receptor, Arabidopsis thaliana, UniProt P93002 1-593, looked up, not shown: small tags and cut ends)
chain: T1 chain
